For at least one entry, the source does not settle the construct or the ends of the probe. No signal at the amounts used counts as a negative. At least one verdict was read from the data and is not stated in words by the source. Tags and fusion partners may be left off the protein sequences shown.
Target: T1, CTCF DBD (wild type) (human) (UniProt P49711)
T1 sequence (looked up): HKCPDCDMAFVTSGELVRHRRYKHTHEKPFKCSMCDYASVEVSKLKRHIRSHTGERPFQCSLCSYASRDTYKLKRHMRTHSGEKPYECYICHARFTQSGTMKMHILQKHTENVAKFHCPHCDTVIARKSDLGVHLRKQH
Assay: EMSA
Settings: 0.1 mM Zn2+; EMSA: 0.2 uM DNA, 0-2 uM protein, 20 mM Tris-HCl pH 8.0, 150 mM NaCl, 0.1 mM ZnCl2, 1 mM DTT, 30 min RT; 12% native PAGE in 0.5x TBE; recombinant protein; residues 322-460; label: none (SYBR Safe stain)

Sequence	binding result
TCTCCTATGACTCGTCCAT (double strand) [NC probe (control motif)]	no binding
CTGCTGCCAGTAGAGGGCACACTTA (double strand) [C-MYC probe]	binds

Source: publication PMC9474293
